Test results: article PMC10540840 (Frontiers in Oncology, 2023)

Experiment: peptide made by a vendor
Details: peak area percentage

## TSLDASIWAMMQNA
  purity (crude or final not stated): 96.401%

End groups of sequences in plain letters are not given here.
